{"source": "patent US20140323562A1", "about": "“THIOSULFINATE ANTIOXIDANTS AND METHODS OF USE THEREOF” (Universition of Ottawa, priority 2011, published 2014)", "origin": "cited, not measured here", "key": {"[1]": {"settings": "cited from earlier work"}, "[2]": {"settings": "cited from earlier work", "remark": "listed apart in the source"}}, "note": "At least one compound was matched to its structure with a doubt left."}
{"smiles": "OSC12c3ccccc3C(c3ccccc31)c1ccccc12", "note": "[compound 5, 9-triptycenesulfenic acid]", "values": [{"measurement": "O—H bond strength", "setting": "[1]", "value": 72, "unit": "kcal/mol"}, {"measurement": "kinh, reaction with peroxyl radicals", "setting": "[2]", "value": "3e+06", "unit": "M⁻¹ s⁻¹"}]}
